In article PMC7082075:
Results are given in words; binding and its absence hold for the method and conditions named. Binding can be weak; no strength is given. Where a sequence is shown, tags or fusion partners need not be part of it.

Target: T1, MBP-SNX5^PX (UniProt Q9Y5X3)
T1 sequence: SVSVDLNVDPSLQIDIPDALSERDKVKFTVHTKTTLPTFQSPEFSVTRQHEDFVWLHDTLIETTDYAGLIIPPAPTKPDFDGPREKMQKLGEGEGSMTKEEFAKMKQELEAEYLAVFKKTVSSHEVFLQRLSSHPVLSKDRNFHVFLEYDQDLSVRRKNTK
Test: pull-down; competition: GST-CI-MPR pull-down of purified MBP-SNX5^PX in the presence or absence of IncE at stated molar ratios; Coomassie staining; both purified

IncE (Chlamydia trachomatis)
binding: binds
